Measured values as given in patent US6337317B1, “Antimicrobial peptides and methods of use thereof” (priority 2000, dated 2002).
Where a SMILES comes first, the peptide text is derived from it.

Experiments:
[1] = Tryptophan fluorescence and KI quenching, POPC liposomes; set-up: key to Accessibility to quencher KI: −: the fluorescence of tryptophan residue could not be quenched by the aqueous quencher KI; +: the fluorescence of tryptophan residue was suppressed by the aqueous quencher KI in a concentration dependent manner
[2] = Tryptophan fluorescence and KI quenching, POPC/POPG liposomes; set-up: key to Accessibility to quencher KI: −: the fluorescence of tryptophan residue could not be quenched by the aqueous quencher KI; +: the fluorescence of tryptophan residue was suppressed by the aqueous quencher KI in a concentration dependent manner; settings: for Emax (nm) (POPC/ POPG): POPC/POPG 7:3 liposomes; for Accessibility to quencher KI / Intensity change (fold): POPC/POPG liposomes; for Emax (nm) (HEPES): tryptophan fluorescence emission maximum in HEPES buffer
[3] = Langmuir monolayer assay, mixed lipids mimicking E. coli cytoplasmic membrane; settings: initial pressure 20±1 mN/m, 23° C.

## CC(C)[C@@H]1NC(=O)[C@H](CCCNC(=N)N)NC(=O)[C@H](Cc2ccccc2)NC(=O)[C@@H](NC(=O)[C@H](Cc2c[nH]c3ccccc23)NC(=O)[C@H](CCCNC(=N)N)NC(=O)[C@@H](N)CCCNC(=N)N)CSSC[C@@H](C(=O)N[C@@H](CCCNC(=N)N)C(N)=O)NC(=O)[C@H](CCCCN)NC(=O)[C@H](Cc2ccc(O)cc2)NC(=O)[C@H](CCCNC(=N)N)NC(=O)[C@@H]2CSSC[C@H](NC1=O)C(=O)N[C@@H](Cc1ccc(O)cc1)C(=O)N[C@@H](CCCCN)C(=O)NCC(=O)N[C@@H](Cc1ccccc1)C(=O)N2 [SEQ ID NO:4, RRWCFRVCYKGFCRYKCR] (HELM PEPTIDE1{R.R.W.C.F.R.V.C.Y.K.G.F.C.R.Y.K.C.R.[am]}$PEPTIDE1,PEPTIDE1,4:R3-17:R3|PEPTIDE1,PEPTIDE1,8:R3-13:R3$$$V2.0)
[1]
  Accessibility to quencher KI: +
  Emax in POPC (nm): 353 nm
  Intensity change (fold): 1.5 fold
  increase of tryptophan fluorescence in POPC liposomes compared to HEPES buffer: about 50%
[2]
  Emax (nm) (POPC/ POPG): 343 nm
  Accessibility to quencher KI: −
  Intensity change (fold): 2.4 fold
  Emax (nm) (HEPES): 354 nm
[3]
  plateau Δπ (surface pressure change): 4.7 mN/m

## CC(C)[C@@H]1NC(=O)[C@H](CCCNC(=N)N)NC(=O)[C@H](Cc2ccccc2)NC(=O)[C@@H](NC(=O)[C@H](Cc2c[nH]c3ccccc23)NC(=O)[C@H](CCCNC(=N)N)NC(=O)[C@@H](N)CCCNC(=N)N)CSSC[C@@H](C(=O)N[C@@H](CCCNC(=N)N)C(N)=O)NC(=O)[C@H](CCCCN)NC(=O)[C@H](CCCNC(=N)N)NC(=O)[C@H](Cc2ccc(O)cc2)NC(=O)[C@@H]2CSSC[C@H](NC1=O)C(=O)N[C@@H](Cc1ccc(O)cc1)C(=O)N[C@@H](CCCNC(=N)N)C(=O)NCC(=O)N[C@@H](CCCNC(=N)N)C(=O)N[C@@H](Cc1ccccc1)C(=O)N2 [SEQ ID NO:11, RRWCFRVCYRGRFCYRKCR] (HELM PEPTIDE1{R.R.W.C.F.R.V.C.Y.R.G.R.F.C.Y.R.K.C.R.[am]}$PEPTIDE1,PEPTIDE1,4:R3-18:R3|PEPTIDE1,PEPTIDE1,8:R3-14:R3$$$V2.0)
[1]
  Accessibility to quencher KI: +
  Emax in POPC (nm): 354 nm
  Intensity change (fold): 0.7 fold
[2]
  Emax (nm) (POPC/ POPG): 342 nm
  Accessibility to quencher KI: −
  Intensity change (fold): 3.7 fold
  Emax (nm) (HEPES): 356 nm
[3]
  plateau Δπ (surface pressure change): 5.2 mN/m

## CC(C)[C@@H]1NC(=O)[C@H](CCCNC(=N)N)NC(=O)[C@H](Cc2ccccc2)NC(=O)[C@@H](NC(=O)[C@H](Cc2c[nH]c3ccccc23)NC(=O)[C@H](CCCNC(=N)N)NC(=O)[C@@H](N)Cc2ccccc2)CSSC[C@@H](C(=O)N[C@@H](CCCNC(=N)N)C(N)=O)NC(=O)[C@H](CCCCN)NC(=O)[C@H](Cc2ccc(O)cc2)NC(=O)[C@H](CCCNC(=N)N)NC(=O)[C@@H]2CSSC[C@H](NC1=O)C(=O)N[C@@H](Cc1ccc(O)cc1)C(=O)N[C@@H](CCCCN)C(=O)NCC(=O)N[C@@H](CCCNC(=N)N)C(=O)N2 [SEQ ID NO:3, FRWCFRVCYKGRCRYKCR] (HELM PEPTIDE1{F.R.W.C.F.R.V.C.Y.K.G.R.C.R.Y.K.C.R.[am]}$PEPTIDE1,PEPTIDE1,4:R3-17:R3|PEPTIDE1,PEPTIDE1,8:R3-13:R3$$$V2.0)
[1]
  Accessibility to quencher KI: +
  Emax in POPC (nm): 350 nm
  Intensity change (fold): −0.7 fold
[2]
  Emax (nm) (POPC/ POPG): 338 nm
  Accessibility to quencher KI: −
  Intensity change (fold): 1.9 fold
  Emax (nm) (HEPES): 353 nm
[3]
  plateau Δπ (surface pressure change): 4.5 mN/m

## CC(C)[C@@H]1NC(=O)[C@H](CCCNC(=N)N)NC(=O)[C@H](Cc2ccccc2)NC(=O)[C@@H](NC(=O)[C@H](Cc2c[nH]c3ccccc23)NC(=O)[C@H](CCCNC(=N)N)NC(=O)[C@@H](N)CCCNC(=N)N)CSSC[C@@H](C(=O)N[C@@H](CCCNC(=N)N)C(N)=O)NC(=O)[C@H](CCCCN)NC(=O)[C@H](CCCNC(=N)N)NC(=O)[C@H](Cc2ccc(O)cc2)NC(=O)[C@@H]2CSSC[C@H](NC1=O)C(=O)N[C@@H](Cc1ccc(O)cc1)C(=O)N[C@@H](CCCNC(=N)N)C(=O)NCC(=O)N[C@@H](Cc1ccccc1)C(=O)N2 [Polyphemusin I, reference compound] (HELM PEPTIDE1{R.R.W.C.F.R.V.C.Y.R.G.F.C.Y.R.K.C.R.[am]}$PEPTIDE1,PEPTIDE1,4:R3-17:R3|PEPTIDE1,PEPTIDE1,8:R3-13:R3$$$V2.0; N-terminus and C-terminus assumed)
[1]
  Accessibility to quencher KI: +
  Emax in POPC (nm): 353 nm
  Intensity change (fold): −0.5 fold
[2]
  Emax (nm) (POPC/ POPG): 342 nm
  Accessibility to quencher KI: −
  Intensity change (fold): 1.3 fold
  Emax (nm) (HEPES): 356 nm
[3]
  plateau Δπ (surface pressure change): 7.4 mN/m
